Data published in patent US20180223285.

Tests used:
[1] = target: T1, human C5a (Homo sapiens) (UniProt P01031); assay: SPR; conditions: L-RNA, purified recombinant protein, protein details: recombinant, amine-coupled to CM5 chip for SPR, synthetic backbone
T1 sequence: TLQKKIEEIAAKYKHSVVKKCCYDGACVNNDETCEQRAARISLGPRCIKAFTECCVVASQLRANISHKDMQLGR

[2] = target: T1, human C5a (Homo sapiens); assay: activity in cells; conditions: L-RNA, 5' 40 kDa PEG, chemotaxis of BA/F3-huC5aR cells, 0.1 nM huC5a, 37 C, purified recombinant protein, protein details: recombinant, amine-coupled to CM5 chip for SPR, synthetic backbone, mirror-image nucleic acid
[3] = target: T2, mouse C5a (Mus musculus) (UniProt P06684); assay: SPR; conditions: L-RNA, purified recombinant protein, protein details: amine-coupled to CM5 chip for SPR, synthetic backbone, mirror-image nucleic acid
T2 sequence: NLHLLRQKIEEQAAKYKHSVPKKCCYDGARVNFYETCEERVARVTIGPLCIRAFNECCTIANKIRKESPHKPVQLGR

[4] = target: T2, mouse C5a (Mus musculus); assay: activity in cells; conditions: L-RNA; L-2'-deoxy dU7,dG14,dA15,dU28,dU30,dC38; 5' 40 kDa PEG; chemotaxis of BA/F3-huC5aR cells, 0.3 nM mC5a; assay limit 150 pM; purified recombinant protein; protein details: amine-coupled to CM5 chip for SPR; synthetic backbone; mirror-image nucleic acid; variant of NOX-D20001 (NOX-D19001-6xDNA-020)
[5] = test system: T3, rhesus monkey C5a (Macaca mulatta); assay: SPR; conditions: L-RNA; L-2'-deoxy dU7,dG14,dA15,dU28,dU30,dC38; 5' 40 kDa PEG; no binding up to 1000 nM; purified recombinant protein; synthetic backbone; mirror-image nucleic acid; variant of NOX-D20001 (NOX-D19001-6xDNA-020)
T3 sequence: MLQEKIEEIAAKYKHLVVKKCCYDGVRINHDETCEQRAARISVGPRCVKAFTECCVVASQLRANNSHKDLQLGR

[6] = target: T4, rat C5a (Rattus norvegicus) (UniProt P08650); assay: SPR; conditions: L-RNA; L-2'-deoxy dU7,dG14,dA15,dU28,dU30,dC38; 5' 40 kDa PEG; no binding up to 1000 nM; purified recombinant protein; synthetic backbone; mirror-image nucleic acid; variant of NOX-D20001 (NOX-D19001-6xDNA-020)
T4 sequence: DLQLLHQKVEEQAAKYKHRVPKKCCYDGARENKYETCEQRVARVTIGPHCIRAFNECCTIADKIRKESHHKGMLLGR

[7] = L-2'-deoxy dU8,dG15,dA16,dU29,dU31,dC39, mirror-image nucleic acid, variant of NOX-D19001-6xDNA (D09-16-17-30-32-40)
[8] = L-2'-deoxy dU6,dG13,dA14,dU27,dU29,dC37, mirror-image nucleic acid, variant of NOX-D19001-6xDNA (D09-16-17-30-32-40)
[9] = L-2'-deoxy dU7,dG14,dA15,dU28,dU30,dC38, mirror-image nucleic acid, variant of NOX-D19001-6xDNA (D09-16-17-30-32-40)
[10] = among best binders, mirror-image nucleic …

“CCUGAUGUGGUGGUGAAGGGUUGUUGGGUGUCGACGCACAGGC [NOX-D19001-6xDNA-007]”: binds [1, 7].

“CGAUGUGGUGGUGAAGGGUUGUUGGGUGUCGACGCACAGC [NOX-D19001-6xDNA-023]”: binds [1, 8].

“CGAUGUGGUGGUGAAGGGUUGUUGGGUGUCGACGCACGC [NOX-D19001-6xDNA-028]”: binds [1, 8].

“CGCACGCAGCUGUGGGUUGUUGGGAAGUGGUGGUGUAGCG [revNOX-D21]”: no binding ([1]; L-2'-deoxy dC3,dU13,dU34, 5' 40 kDa PEG, reverse-sequence control, earlier shown not to inhibit C5a in Biacore and cell assays, mirror-image nucleic acid).

“CGGACACGCAGCUGUGGGUUGUUGGGAAGUGGUGGUGUAGUCCG [revNOX-D19]”: no binding ([1]; 5' 40 kDa PEG, reverse-sequence control, earlier shown not to inhibit C5a in Biacore and cell assays, mirror-image nucleic acid, variant of NOX-D19 (NOX-D19001-5'40kDa-PEG)).

“CUGAUGUGGUGGUGAAGGGUUGUUGGGUGUCGACGCACAGC [NOX-D19001-6xDNA-021]”: binds [1, 9].

“CUGAUGUGGUGGUGAAGGGUUGUUGGGUGUCGACGCACAGGC [NOX-D19001-6xDNA-008]”: binds [1, 9].

“GCCGAUGUGGUGGUGAAGGGUUGUUGGGUGUCGACGCACGGC [NOX-D19001-6xDNA-018]”: binds [1, 7].

With “GCCUGAUGUGGUGGUGAAGGGUUGUUGGGUGUCGACGCACAGGC [NOX-D19 (NOX-D19001-5'40kDa-PEG)]” the IC50 ([2]; variant of NOX-D19001 (274-C8-002-G14)) was 1.9 nM.

“GCCUGAUGUGGUGGUGAGGGGAUGUGGGGUGUCGACGCACAGGC [274-G6-002]”: binds [3]; binds ([1]; mirror-image nucleic acid).

“GCCUGAUGUGGUGGUGAGGGGUUGUGGGGUGUCGACGCACAGGC [274-C5-002]”: binds ([3]; among best binders); binds [1, 10].

“GCCUGAUGUGGUGUUGAAGGGUUGUGGGGUGUCGACGCACAGGC [274-B5-002]”: binds [3]; binds ([1]; mirror-image nucleic acid).

“GCCUGAUGUGGUGUUGAAGGGUUGUUGGGUGUCGACGCACAGGC [274-C8-002]”: binds ([3]; among best binders); binds [1, 10].

“GCCUGAUGUGGUGUUGAGGGGUUGUGGGGUGUCGACGCACAGGC [274-D5-002]”: binds [3]; binds ([1]; mirror-image nucleic acid).

“GCGAUGUGGUGGUGAAGGGUUGUUGGGUGUCGACGCACC [NOX-D19001-6xDNA-030]”: binds [1, 9].

With “GCGAUGUGGUGGUGAAGGGUUGUUGGGUGUCGACGCACGC [NOX-D20 (NOX-D19001-6xDNA-020-5'40kDa-PEG)]” the IC50 [4] was 0.14 nM, the IC50 ([2]; L-2'-deoxy dU7,dG14,dA15,dU28,dU30,dC38, variant of NOX-D20001 (NOX-D19001-6xDNA-020)) was 0.275 nM and the binding result [5] was “no binding”. “GCGAUGUGGUGGUGAAGGGUUGUUGGGUGUCGACGCACGC [NOX-D20 (NOX-D19001-6xDNA-020-5'40kDa-PEG)]”: no binding [6].

“GCGAUGUGGUGGUGAAGGGUUGUUGGGUGUCGACGCACGC [NOX-D21 (NOX-D19001-2dU-1dC-020-5'40kDa-PEG)]” gave an IC50 ([2]; L-2'-deoxy dU7,dU28,dC38, variant of NOX-D21001 (NOX-D19001-2dU-1dC-020)) of 0.476 nM.

“GCGAUGUGGUGGUGAAGGGUUGUUGGGUGUCGACGCACGC [NOX-D19001-1xDNA-020]”: binds ([1]; L-2'-deoxy dU7, mirror-image nucleic acid, variant of NOX-D19001-020).

“GCUGAUGUGGUGGUGAAGGGUUGUUGGGUGUCGACGCACA [NOX-D19001-6xDNA-027]”: binds [1, 7].

“GCUGAUGUGGUGGUGAAGGGUUGUUGGGUGUCGACGCACAC [NOX-D19001-6xDNA-025]”: binds [1, 7].

“GCUGAUGUGGUGGUGAAGGGUUGUUGGGUGUCGACGCACAGC [NOX-D19001-6xDNA-011]”: binds [1, 7].

“GCUGAUGUGGUGGUGAAGGGUUGUUGGGUGUCGACGCACC [NOX-D19001-6xDNA-026]”: binds [1, 7].

“GGAUGUGGUGGUGAAGGGUUGUUGGGUGUCGACGCACC [NOX-D19001-6xDNA-033]”: binds [1, 8].

“GGCGAUGUGGUGGUGAAGGGUUGUUGGGUGUCGACGCACGCC [NOX-D19001-6xDNA-019]”: binds [1, 7].

“GUGAUGUGGUGGUGAAGGGUUGUUGGGUGUCGACGCACAC [NOX-D19001-6xDNA-012]”: binds [1, 9].

“UGAUGUGGUGGUGAAGGGUUGUUGGGUGUCGACGCACA [NOX-D19001-6xDNA-013]”: binds [1, 8].

“UGAUGUGGUGGUGAAGGGUUGUUGGGUGUCGACGCACAGC [NOX-D19001-6xDNA-022]”: binds [1, 8].

“UGAUGUGGUGGUGAAGGGUUGUUGGGUGUCGACGCACAGGC [NOX-D19001-6xDNA-009]”: binds [1, 8].

Construct, isoform or probe ends are uncertain for at least one entry. For part of these data: No signal at the amounts used counts as a negative. Protein sequences can lack the tags named with them.
